Experimental data from patent US20210317219A1.
These are yes or no findings as the source states them, for the method shown. Some binding calls cover weakened binding; strength is not graded here.

Chains of the proteins cited; added tags and fusions are not shown. Lines headed by an entry give the natural chain unless they say otherwise; changes in a name come on top.
UniProt P07333: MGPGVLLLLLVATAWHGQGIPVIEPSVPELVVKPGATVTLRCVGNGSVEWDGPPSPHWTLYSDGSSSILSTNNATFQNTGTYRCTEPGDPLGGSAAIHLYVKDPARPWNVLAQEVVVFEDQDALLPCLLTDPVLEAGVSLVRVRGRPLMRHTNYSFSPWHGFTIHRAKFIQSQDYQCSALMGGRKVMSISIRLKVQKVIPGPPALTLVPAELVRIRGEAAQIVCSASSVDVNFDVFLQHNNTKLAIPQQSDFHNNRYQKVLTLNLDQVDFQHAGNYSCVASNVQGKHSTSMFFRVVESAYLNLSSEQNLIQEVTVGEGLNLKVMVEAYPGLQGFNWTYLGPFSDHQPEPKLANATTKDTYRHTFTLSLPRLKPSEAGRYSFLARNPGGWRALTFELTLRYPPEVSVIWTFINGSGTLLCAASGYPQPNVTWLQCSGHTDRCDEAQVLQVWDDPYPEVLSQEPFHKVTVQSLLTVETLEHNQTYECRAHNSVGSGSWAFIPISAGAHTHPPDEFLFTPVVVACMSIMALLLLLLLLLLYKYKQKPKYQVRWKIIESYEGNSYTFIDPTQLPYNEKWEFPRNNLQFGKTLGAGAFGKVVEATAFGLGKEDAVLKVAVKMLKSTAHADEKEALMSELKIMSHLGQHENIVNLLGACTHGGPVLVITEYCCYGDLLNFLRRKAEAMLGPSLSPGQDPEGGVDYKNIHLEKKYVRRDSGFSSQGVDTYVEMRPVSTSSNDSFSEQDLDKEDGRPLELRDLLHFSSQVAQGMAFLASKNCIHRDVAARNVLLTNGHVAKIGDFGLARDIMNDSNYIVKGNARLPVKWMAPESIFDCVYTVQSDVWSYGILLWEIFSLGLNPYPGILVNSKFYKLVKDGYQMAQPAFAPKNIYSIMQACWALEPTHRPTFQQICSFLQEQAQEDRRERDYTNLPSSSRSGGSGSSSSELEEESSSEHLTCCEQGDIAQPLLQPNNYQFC

Target: human CSF1R ECD (human) (UniProt P07333)
Assay: binding test on CSF1R ECD; method not described here

Binder | binding
huAb7 (antibody, human IgG4 S228P, kappa, V domains shown) VH: QVQLVQSGAEVKKPGSSVKVSCKASGYTFSDFNIHWVRQAPGQGLEWMGYINPYTDVTVYNEKFKGRVTITSDKSTSTAYMELSSLRSEDTAVYYCASYFDGTFDYALDYWGQGTLVTVSS VL: EIVLTQSPATLSLSPGERATLSCRASESVDNYGLSFMNWYQQKPGQAPRLLIYTASNLESGIPARFSGSGSGTDFTLTISSLEPEDFAVYYCQQSKELPWTFGQGTKVEIKR | binds
huAb8 (antibody, human IgG4 S228P, kappa, V domains shown) VH: QVQLVQSGAEVKKPGSSVKVSCKASGYTFSDFNIHWVRQAPGQGLEWMGYINPYTDVTVYNEKFKGRVTITSDKSTSTAYMELSSLRSEDTAVYYCASYFDGTFDYALDYWGQGTLVTVSS VL: EIVLTQSPATLSLSPGERATLSCRASESVDNYGLSFMNWYQQKPGQAPRLLIYTASNLESGIPARFSGSGSRTDFTLTISSLEPEDFAVYYCQQSKELPWTFGQGTKVEIKR | binds
huAb9 (antibody, human IgG4 S228P, kappa, V domains shown) VH: QVQLVQSGAEVKKPGSSVKVSCKASGYTFSDFNIHWVRQAPGQGLEWMGYINPYTDVTVYNEKFKGRVTITSDKSTSTAYMELSSLRSEDTAVYYCASYFDGTFDYALDYWGQGTLVTVSS VL: EIVVTQSPATLSLSPGERATLSCRASESVDNYGLSFMNWFQQKPGQAPRLLIYTASNLESGIPARFSGSGSRTDFTLTISSLEPEDFAVYYCQQSKELPWTFGQGTKVEIKR | binds
huAb10 (antibody, human IgG4 S228P, kappa, V domains shown) VH: QVQLVQSGAEVKKPGSSVKVSCKASGYTFSDFNIHWVRQAPGQGLEWIGYINPYTDVTVYNEKFKGRATLTSDKSTSTAYMELSSLRSEDTAVYYCASYFDGTFDYALDYWGQGTLVTVSS VL: EIVLTQSPATLSLSPGERATLSCRASESVDNYGLSFMNWYQQKPGQAPRLLIYTASNLESGIPARFSGSGSGTDFTLTISSLEPEDFAVYYCQQSKELPWTFGQGTKVEIKR | binds
huAb11 (antibody, human IgG4 S228P, kappa, V domains shown) VH: QVQLVQSGAEVKKPGSSVKVSCKASGYTFSDFNIHWVRQAPGQGLEWIGYINPYTDVTVYNEKFKGRATLTSDKSTSTAYMELSSLRSEDTAVYYCASYFDGTFDYALDYWGQGTLVTVSS VL: EIVLTQSPATLSLSPGERATLSCRASESVDNYGLSFMNWYQQKPGQAPRLLIYTASNLESGIPARFSGSGSRTDFTLTISSLEPEDFAVYYCQQSKELPWTFGQGTKVEIKR | binds
huAb14 (antibody, human IgG4 S228P, kappa, V domains shown) VH: QVQLVQSGAEVKKPGSSVKVSCKASGYIFTDYNMHWVRQAPGQGLEWMGEINPNNGVVVYNQKFKGRVTITVDKSTSTAYMELSSLRSEDTAVYYCTRALYHSNFGWYFDSWGQGTLVTVSS VL: DIVLTQSPATLSLSPGERATLSCKASQSVDYDGDSHMNWYQQKPGQAPRLLIYTASNLESGIPARFSGSGSGADFTLTISSLEPEDFAVYYCQQGNEDPWTFGQGTKVEIKR | binds
huAb15 (antibody, human IgG4 S228P, kappa, V domains shown) VH: QVQLVQSGAEVKKPGSSVKVSCKASGYIFTDYNMHWVRQAPGQGLEWMGEINPNNGVVVYNQKFKGTTTLTVDKSTSTAYMELSSLRSEDTAVYYCTRALYHSNFGWYFDSWGQGTLVTVSS VL: EIVLTQSPATLSLSPGERATLSCKASQSVDYDGDSHMNWYQQKPGQAPRLLIYTASNLESGIPARFSGSGSGTDFTLTISSLEPEDFAVYYCQQGNEDPWTFGQGTKVEIKR | binds

The next lines start with the values.

binding | Binder
binds | huAb12 (antibody, human IgG4 S228P, kappa, V domains shown) VH: QVQLVQSGAEVKKPGSSVKVSCKASGYTFSDFNIHWVRQAPGQGLEWIGYINPYTDVTVYNEKFKGRATLTSDKSTSTAYMELSSLRSEDTAVYYCASYFDGTFDYALDYWGQGTLVTVSS VL: EIVVTQSPATLSLSPGERATLSCRASESVDNYGLSFMNWFQQKPGQAPRLLIYTASNLESGIPARFSGSGSRTDFTLTISSLEPEDFAVYYCQQSKELPWTFGQGTKVEIKR
binds | huAb13 (antibody, human IgG4 S228P, kappa, V domains shown) VH: QVQLVQSGAEVKKPGSSVKVSCKASGYIFTDYNMHWVRQAPGQGLEWMGEINPNNGVVVYNQKFKGRVTITVDKSTSTAYMELSSLRSEDTAVYYCTRALYHSNFGWYFDSWGQGTLVTVSS VL: EIVLTQSPATLSLSPGERATLSCKASQSVDYDGDSHMNWYQQKPGQAPRLLIYTASNLESGIPARFSGSGSGTDFTLTISSLEPEDFAVYYCQQGNEDPWTFGQGTKVEIKR
binds | huAb16 (antibody, human IgG4 S228P, kappa, V domains shown) VH: QVQLVQSGAEVKKPGSSVKVSCKASGYIFTDYNMHWVRQAPGQGLEWMGEINPNNGVVVYNQKFKGTTTLTVDKSTSTAYMELSSLRSEDTAVYYCTRALYHSNFGWYFDSWGQGTLVTVSS VL: DIVLTQSPATLSLSPGERATLSCKASQSVDYDGDSHMNWYQQKPGQAPRLLIYTASNLESGIPARFSGSGSGADFTLTISSLEPEDFAVYYCQQGNEDPWTFGQGTKVEIKR
